# Laboratory results published in the supplement of paper PMC11732987, “Enantioselective OTUD7B fragment discovery through chemoproteomics screening and high-throughput optimisation” (Communications Chemistry, 2025).
# The chains behind the UniProt entries cited, without tags or fusion partners. Where a name states a change or a piece, a line headed by the entry shows the natural chain unless it says otherwise. Residues count along the entry.
# UniProt O95340: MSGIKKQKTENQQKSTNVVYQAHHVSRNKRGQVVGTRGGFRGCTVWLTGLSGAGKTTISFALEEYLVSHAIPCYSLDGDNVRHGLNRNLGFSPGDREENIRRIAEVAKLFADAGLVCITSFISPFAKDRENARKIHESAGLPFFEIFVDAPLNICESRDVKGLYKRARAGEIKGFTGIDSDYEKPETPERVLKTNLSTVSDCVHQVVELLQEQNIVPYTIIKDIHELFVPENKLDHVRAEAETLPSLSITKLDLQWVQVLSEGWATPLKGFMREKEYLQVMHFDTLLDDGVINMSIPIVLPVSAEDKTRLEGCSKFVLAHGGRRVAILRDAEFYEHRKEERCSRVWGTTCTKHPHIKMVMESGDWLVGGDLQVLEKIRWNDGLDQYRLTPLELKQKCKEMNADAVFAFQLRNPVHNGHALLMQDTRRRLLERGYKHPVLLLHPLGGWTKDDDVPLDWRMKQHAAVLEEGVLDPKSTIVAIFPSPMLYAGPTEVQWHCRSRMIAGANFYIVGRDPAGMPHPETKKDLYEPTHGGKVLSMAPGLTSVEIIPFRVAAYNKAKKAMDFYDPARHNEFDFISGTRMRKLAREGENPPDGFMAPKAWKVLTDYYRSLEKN
# UniProt Q8NEN9: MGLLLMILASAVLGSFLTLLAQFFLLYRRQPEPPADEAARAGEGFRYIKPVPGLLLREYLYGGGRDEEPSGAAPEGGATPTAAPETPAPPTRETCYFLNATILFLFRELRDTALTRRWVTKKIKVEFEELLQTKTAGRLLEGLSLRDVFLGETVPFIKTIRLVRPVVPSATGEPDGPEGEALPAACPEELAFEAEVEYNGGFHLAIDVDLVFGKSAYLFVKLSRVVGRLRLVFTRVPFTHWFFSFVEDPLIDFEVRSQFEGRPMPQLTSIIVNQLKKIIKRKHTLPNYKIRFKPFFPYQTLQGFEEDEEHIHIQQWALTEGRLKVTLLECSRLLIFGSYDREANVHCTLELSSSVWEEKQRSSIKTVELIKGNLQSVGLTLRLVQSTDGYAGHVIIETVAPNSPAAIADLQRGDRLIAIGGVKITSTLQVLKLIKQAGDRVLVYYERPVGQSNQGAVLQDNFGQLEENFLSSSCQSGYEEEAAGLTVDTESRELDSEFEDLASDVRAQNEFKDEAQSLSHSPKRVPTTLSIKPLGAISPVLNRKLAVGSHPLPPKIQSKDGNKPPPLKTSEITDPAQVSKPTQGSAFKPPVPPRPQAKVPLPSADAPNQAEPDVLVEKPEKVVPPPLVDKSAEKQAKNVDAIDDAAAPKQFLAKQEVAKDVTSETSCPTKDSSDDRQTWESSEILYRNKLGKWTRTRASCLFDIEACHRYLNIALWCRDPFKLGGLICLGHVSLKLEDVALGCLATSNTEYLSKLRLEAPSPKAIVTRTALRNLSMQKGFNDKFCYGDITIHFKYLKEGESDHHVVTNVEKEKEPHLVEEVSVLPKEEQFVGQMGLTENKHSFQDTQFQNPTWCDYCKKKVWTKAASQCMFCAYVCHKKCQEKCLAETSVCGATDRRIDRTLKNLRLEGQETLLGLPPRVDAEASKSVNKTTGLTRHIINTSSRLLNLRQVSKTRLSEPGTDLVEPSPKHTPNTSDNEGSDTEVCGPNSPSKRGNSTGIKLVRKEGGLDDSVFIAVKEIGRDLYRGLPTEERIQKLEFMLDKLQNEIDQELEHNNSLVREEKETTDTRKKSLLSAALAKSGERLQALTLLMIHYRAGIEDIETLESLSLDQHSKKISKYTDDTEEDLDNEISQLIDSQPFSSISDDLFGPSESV
# UniProt P12004, 118-138: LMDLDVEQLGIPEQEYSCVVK
# UniProt O15067: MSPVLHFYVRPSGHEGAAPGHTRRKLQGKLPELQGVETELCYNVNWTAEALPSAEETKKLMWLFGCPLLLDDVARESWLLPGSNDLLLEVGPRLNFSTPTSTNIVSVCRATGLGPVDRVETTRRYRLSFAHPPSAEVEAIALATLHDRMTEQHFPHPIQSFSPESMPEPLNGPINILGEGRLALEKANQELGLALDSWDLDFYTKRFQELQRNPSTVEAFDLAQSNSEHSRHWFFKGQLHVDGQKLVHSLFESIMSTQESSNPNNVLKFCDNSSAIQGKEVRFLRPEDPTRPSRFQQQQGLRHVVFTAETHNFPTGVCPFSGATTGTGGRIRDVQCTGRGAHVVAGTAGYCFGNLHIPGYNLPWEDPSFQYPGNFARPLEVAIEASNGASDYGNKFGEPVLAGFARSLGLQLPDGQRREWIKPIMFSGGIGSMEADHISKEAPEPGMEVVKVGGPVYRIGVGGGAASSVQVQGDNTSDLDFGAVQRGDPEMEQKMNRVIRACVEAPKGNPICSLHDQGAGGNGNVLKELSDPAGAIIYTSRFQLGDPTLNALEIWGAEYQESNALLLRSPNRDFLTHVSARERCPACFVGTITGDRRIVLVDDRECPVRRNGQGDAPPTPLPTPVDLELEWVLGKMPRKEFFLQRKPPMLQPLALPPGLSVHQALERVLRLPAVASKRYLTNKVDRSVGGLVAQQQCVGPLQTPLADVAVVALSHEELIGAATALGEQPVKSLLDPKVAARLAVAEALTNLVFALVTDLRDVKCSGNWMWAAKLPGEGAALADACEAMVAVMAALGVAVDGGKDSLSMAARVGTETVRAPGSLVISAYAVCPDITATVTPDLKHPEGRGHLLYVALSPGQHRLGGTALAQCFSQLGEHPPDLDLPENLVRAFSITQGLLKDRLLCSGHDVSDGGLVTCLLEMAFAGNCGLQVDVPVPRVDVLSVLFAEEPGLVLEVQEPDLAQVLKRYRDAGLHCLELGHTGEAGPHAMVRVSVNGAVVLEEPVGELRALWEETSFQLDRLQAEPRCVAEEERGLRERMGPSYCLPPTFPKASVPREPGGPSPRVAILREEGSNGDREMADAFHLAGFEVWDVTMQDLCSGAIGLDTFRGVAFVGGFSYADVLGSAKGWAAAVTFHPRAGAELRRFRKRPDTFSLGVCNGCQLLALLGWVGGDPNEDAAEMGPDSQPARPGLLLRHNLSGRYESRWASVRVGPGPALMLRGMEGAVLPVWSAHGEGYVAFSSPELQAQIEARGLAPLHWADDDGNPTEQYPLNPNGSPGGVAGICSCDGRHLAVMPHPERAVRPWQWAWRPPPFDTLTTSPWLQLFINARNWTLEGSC
# UniProt Q15154: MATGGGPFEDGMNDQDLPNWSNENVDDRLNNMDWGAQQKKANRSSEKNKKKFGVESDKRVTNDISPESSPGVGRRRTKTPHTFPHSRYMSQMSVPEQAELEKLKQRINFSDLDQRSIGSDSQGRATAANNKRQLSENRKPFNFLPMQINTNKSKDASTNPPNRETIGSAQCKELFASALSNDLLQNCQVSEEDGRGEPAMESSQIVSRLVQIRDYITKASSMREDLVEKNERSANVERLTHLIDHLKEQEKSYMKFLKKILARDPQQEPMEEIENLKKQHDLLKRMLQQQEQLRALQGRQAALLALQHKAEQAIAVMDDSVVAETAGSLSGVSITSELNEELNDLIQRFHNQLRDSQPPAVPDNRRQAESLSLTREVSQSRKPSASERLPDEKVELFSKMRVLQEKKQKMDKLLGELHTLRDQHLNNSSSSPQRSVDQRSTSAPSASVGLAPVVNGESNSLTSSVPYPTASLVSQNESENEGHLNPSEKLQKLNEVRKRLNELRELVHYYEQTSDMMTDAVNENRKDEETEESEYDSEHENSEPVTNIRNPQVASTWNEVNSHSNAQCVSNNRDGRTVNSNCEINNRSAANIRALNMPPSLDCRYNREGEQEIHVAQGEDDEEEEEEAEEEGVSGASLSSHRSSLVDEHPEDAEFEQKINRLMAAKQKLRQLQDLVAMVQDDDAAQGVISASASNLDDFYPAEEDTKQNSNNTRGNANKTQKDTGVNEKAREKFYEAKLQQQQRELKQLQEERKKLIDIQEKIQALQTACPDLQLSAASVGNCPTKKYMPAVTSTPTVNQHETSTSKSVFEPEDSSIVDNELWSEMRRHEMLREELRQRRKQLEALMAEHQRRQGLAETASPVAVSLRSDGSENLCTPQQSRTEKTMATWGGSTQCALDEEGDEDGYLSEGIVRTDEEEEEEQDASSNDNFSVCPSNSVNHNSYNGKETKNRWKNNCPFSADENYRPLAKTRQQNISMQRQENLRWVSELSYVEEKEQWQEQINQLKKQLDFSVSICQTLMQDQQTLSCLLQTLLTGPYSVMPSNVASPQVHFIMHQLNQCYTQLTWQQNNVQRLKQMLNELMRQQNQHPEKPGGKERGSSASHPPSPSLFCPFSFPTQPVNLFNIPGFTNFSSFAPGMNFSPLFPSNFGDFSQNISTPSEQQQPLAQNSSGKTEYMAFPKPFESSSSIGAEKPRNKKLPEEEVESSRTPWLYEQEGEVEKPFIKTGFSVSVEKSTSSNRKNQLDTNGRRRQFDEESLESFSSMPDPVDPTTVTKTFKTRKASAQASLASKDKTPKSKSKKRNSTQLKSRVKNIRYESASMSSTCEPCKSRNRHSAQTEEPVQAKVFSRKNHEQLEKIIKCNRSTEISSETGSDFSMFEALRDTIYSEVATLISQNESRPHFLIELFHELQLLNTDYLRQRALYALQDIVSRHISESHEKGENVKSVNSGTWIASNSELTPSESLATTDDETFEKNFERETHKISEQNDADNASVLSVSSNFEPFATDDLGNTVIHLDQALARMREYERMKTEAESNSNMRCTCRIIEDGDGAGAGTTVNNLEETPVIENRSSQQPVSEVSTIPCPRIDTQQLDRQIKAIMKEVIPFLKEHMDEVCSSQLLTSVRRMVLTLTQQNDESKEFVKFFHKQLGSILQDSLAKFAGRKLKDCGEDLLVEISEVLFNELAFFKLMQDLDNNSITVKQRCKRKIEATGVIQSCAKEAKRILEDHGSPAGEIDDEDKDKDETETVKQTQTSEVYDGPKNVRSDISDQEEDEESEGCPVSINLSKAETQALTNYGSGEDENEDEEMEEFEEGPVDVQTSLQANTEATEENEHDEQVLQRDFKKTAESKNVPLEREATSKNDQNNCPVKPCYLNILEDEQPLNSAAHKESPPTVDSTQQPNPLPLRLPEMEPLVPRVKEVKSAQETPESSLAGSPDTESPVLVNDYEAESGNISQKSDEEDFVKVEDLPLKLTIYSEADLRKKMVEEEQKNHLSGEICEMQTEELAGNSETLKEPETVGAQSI
# UniProt O60658: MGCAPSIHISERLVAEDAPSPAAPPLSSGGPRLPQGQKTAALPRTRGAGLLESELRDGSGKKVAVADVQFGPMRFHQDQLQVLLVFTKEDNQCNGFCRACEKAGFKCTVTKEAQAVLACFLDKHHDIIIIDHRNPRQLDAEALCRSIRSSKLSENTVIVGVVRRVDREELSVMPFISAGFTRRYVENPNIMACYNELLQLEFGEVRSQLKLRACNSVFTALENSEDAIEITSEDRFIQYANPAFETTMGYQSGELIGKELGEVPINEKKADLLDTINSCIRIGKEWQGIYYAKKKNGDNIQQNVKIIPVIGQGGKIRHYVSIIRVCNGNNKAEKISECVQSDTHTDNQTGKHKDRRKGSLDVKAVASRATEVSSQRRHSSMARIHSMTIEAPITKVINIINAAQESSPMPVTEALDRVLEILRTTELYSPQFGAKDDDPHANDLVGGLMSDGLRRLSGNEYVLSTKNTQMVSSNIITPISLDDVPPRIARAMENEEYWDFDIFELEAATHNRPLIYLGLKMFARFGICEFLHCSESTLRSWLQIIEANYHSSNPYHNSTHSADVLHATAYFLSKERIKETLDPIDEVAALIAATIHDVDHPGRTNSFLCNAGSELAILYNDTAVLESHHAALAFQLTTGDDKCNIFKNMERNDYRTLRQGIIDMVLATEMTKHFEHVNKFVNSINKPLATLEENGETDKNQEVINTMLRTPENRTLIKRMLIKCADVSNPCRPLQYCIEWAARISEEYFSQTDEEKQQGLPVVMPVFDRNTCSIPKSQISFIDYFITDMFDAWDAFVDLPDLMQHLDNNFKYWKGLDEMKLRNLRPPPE
# UniProt Q8N8D1: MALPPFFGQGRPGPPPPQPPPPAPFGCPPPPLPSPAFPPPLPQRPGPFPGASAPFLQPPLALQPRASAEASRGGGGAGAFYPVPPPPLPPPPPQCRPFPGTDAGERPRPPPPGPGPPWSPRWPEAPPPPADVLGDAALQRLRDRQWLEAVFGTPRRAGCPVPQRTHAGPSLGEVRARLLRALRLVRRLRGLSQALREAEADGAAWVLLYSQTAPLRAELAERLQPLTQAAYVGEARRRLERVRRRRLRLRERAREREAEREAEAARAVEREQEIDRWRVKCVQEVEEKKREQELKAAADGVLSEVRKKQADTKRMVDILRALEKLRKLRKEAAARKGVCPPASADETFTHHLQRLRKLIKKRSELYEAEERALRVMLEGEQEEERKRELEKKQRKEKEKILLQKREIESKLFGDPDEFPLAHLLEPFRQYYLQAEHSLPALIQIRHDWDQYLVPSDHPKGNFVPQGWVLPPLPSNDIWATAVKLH
# The other results are listed elsewhere or left out. The data scatter; read single values as rough.
# Compound: ClCC(=O)N[C@@H]1CCCc2ccccc12
# Test: log2 mean competition ratio of IA-DTB cysteine labelling (DMSO/compound) (log2 ratio); higher = stronger cysteine engagement by compound
# Conditions: 50 µM; treatment time: 4 h; cell line lysate: HEK293T
# Method: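 IA-DTB competitive cysteine chemoproteomics in HEK293T RIPA lysate. Lysates were treated with compound 29 or 30 at 50 or 200 µM for 4 h, then IA-DTB (500 µM, 1 h), trypsin-digested, NeutrAvidin-enriched and analysed by diaPASEF. Competition ratio = intensity DMSO / intensity compound (n=4 treated, n=64 DMSO); binding: mean log2 CR ≥ 1 and p ≤ 0.05 plus QC filters. Target is the cysteine site.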
row,Target,log2 mean competition ratio
1,PAPSS2 C350 (UniProt O95340),0.693
2,PA2G4 C149 (UniProt Q9UQ80),0.27
3,PDZD8 C667 (UniProt Q8NEN9),-0.246
4,PCNA C135 (UniProt P12004),0.279
5,PCNA C162 (UniProt P12004),-0.285
6,PCBP2 C158,0.265
7,PFAS C336 (UniProt O15067),-0.188
8,PEPD C482 (UniProt P12955),-0.0538
9,PCM1 C171 (UniProt Q15154),-0.0628
10,PAICS C281,-0.269
11,PASK C89 (UniProt Q96RG2),0.0687
12,PARD3 C921 (UniProt Q8TEW0),0.18
13,OVCA2 C64 (UniProt Q8WZ82),0.0768
14,PDE8A C338 (UniProt O60658),-0.28
15,PAPOLA C677,-0.462
16,PCM1 C957 (UniProt Q15154),0.165
17,PGM2 C484 (UniProt Q96G03),0.243
18,PDCD7 C281 (UniProt Q8N8D1),-0.226
19,PGM3 C200,-0.235
20,PABPC4 C472 (UniProt Q13310),0.251

# Same assay, conditions: 200 µM; treatment time: 4 h; cell line lysate: HEK293T
row,Target,log2 mean competition ratio
1,PAPSS2 C350 (UniProt O95340),1.67
2,PA2G4 C149 (UniProt Q9UQ80),0.689
3,PDZD8 C667 (UniProt Q8NEN9),0.0485
4,PCNA C135 (UniProt P12004),0.258
5,PCNA C162 (UniProt P12004),-0.148
6,PCBP2 C158,-0.00554
7,PFAS C336 (UniProt O15067),-0.0409
8,PEPD C482 (UniProt P12955),0.248
9,PCM1 C171 (UniProt Q15154),0.241
10,PAICS C281,-0.0667
11,PASK C89 (UniProt Q96RG2),-0.231
12,PARD3 C921 (UniProt Q8TEW0),0.18
13,OVCA2 C64 (UniProt Q8WZ82),-0.365
14,PDE8A C338 (UniProt O60658),-0.19
15,PAPOLA C677,0.0469
16,PCM1 C957 (UniProt Q15154),0.32
17,PGM2 C484 (UniProt Q96G03),0.0211
18,PDCD7 C281 (UniProt Q8N8D1),-0.059
19,PGM3 C200,0.141
20,PABPC4 C472 (UniProt Q13310),0.374
